From patent EP2863873B1, “COSMETIC AND DERMATOLOGICAL PREPARATION CONTAINING ONE OR MORE SUBSTANCES WHICH MODULATE THE GENE / PROTEIN FOR THE ENDO180 RECEPTOR” (Beiersdorf AG, priority 2012, dated 2013)
Some entries share one result that the patent states for a list of compounds. At least one structure is not confirmed: it was looked up by name or label, or the drawing left a doubt.

The molecules below were run on Endo180 (assay: Endo180 expression by antibody detection in Cell Western, human dermal fibroblasts). Conditions: in vitro model; result in words in the running text.
Type: cell-based, Humane

Row | SMILES | Expression von Endo180
1 | CC(O)CO (stereo not drawn) [Propylenglycol] | hemmen oder bestenfalls unbeeinflusst lassen
2 | O=C(O)c1ccccc1O [Natriumsalicylat] | hemmen oder bestenfalls unbeeinflusst lassen
3 | OCCOc1ccccc1 [Phenoxyethanol] | hemmen oder bestenfalls unbeeinflusst lassen
